# Results of single-concentration screens

Data taken from ChEMBL document CHEMBL3988442, “University of Dundee, Small-Polar-MMV Screening Library” (2021).

A: 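Whole-cell growth test on Mycobacterium tuberculosis, read after 3 days in glucose-containing 7H9 medium; the read-out is not stated. Tested at 50 µM. The record gives no direction; compounds that gave an IC50 in retests scored well above the rest, so higher reads as more growth inhibition. Of about 69,000 compounds tested this way, about 760 (1.1%) reached 50% or more in at least one test.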
B: 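Whole-cell growth test on Mycobacterium tuberculosis, read after 4 days in a medium based on cholesterol and the lipid DPPC; the read-out is not stated. Concentration: 50 µM. Higher reads as more growth inhibition (inferred: compounds with an IC50 in retests scored well above the rest). About 69,000 compounds were tested under these conditions; 0.54% (about 370) showed 50% or more at least once.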

The filed quantity is “Percent Effect” (%). The controls that fix the scale are not given in the record; negative values are as filed. This is an unselected part of the compounds tested. Two or more numbers in one place are separate tests of the same structure; such repeats can differ widely.

SMILES	A	B
CCOCCCNC(=O)c1cccn1Cc1cccnc1	5.716	4.09
CN(C1CCCCC1)S(=O)(=O)N1CCN(Cc2ccon2)CC1	-12.19 & 9.35	2.681
Cc1noc(C2CCN(C(=O)CCNS(C)(=O)=O)CC2)n1	-24.39	1.227
COc1ccc(-c2ccnc(N)c2)c(C)c1	14.35 & 3.303	12.84
Cn1cnc2cc(C(=O)NS(=O)(=O)c3ccccc3Cl)ccc21	1.089	-18.54
O=C(c1ccc(-n2cc(Br)cn2)cc1)N1CCN(c2cnccn2)CC1	26.16 & 12.4	1.058
O=C(O)C(F)(F)F.[H][C@@]12C[C@H](C(=O)N3CCCO3)CN(CCc3ccccc3)[C@]1([H])CCO2	-9.531	-20.41 & 17.7
Cc1cc(C(=O)N2CCCN(Cc3nccn3C(C)C)CC2)no1	-4.962	-17.27
CN(CCO)C(=O)c1coc(CN2CCN(c3ccccc3F)CC2)n1	0.1532	3.89
CCC(C)NC(=O)c1nn(C)c(NC(=O)c2ccccc2OC)c1F (centres undefined)	16.22	4.832
C=C(C)CN(CC)C(=O)CN(C)C1CCc2ccccc21 (centres undefined)	12.7	12.37
NC(=O)c1ccc(OCC(=O)N2CCCC2c2ccc[nH]2)cc1 (centres undefined)	-21.61	20.26
CCN(CC)C(=O)CSc1nnc(CCNC(=O)OC(C)(C)C)o1	-4.775	-17.24
Cn1nc(C(=O)N2CCCC(n3cncn3)C2)ccc1=O (centres undefined)	17.25	9.585
CCN(Cc1ccc2c(c1)OCCO2)C(=O)NC(C)Cn1cccn1 (centres undefined)	-18.87	-20.33
Cc1ncc(CN(C)C)c(C2CCCN2c2ncccn2)n1 (centres undefined)	-3.057	-1.328
Cc1csc(N2CCN(C(=O)CCc3ccccn3)CC2)n1	38.43	21.99
Cc1ccc(C2CSCCN2C(=O)c2cnsn2)o1 (centres undefined)	11.27 & -27.83	-1.175
Cc1cn2c(=O)c(-c3ccnc(N(C)C4CCCCC4)n3)cnc2s1	35.36	18.2
O=C(O)C1(Cc2cccc(-c3ccc(F)cc3)c2)CCOCC1	-17.37	17.23
Cc1ccc(CNC(=O)CN2CCCCC2Cn2cncn2)s1 (centres undefined)	-17.01	17.13
Cc1noc(C(C)Nc2ccc3c(c2)CCC3)n1 (centres undefined)	39.73	68.3
COc1cccc(F)c1-c1nc2c([nH]1)c(C1CC1)nn2C	-36.52	-27.55
COCCN1C(=O)C2(CCN(CC3CC3)CC2)c2ccccc21.O=C(O)C(F)(F)F	23.95	-4.371
Cc1nnc(CN2CCN(C(C)c3nc(C4CC4)no3)CC2)o1 (centres undefined)	-18.65	-7.032
CCOC(=O)c1ccc(CNC(=O)c2ccc(Cl)cn2)o1	41.38	24.43
COCCNC(=O)c1nc2c(s1)CCCN2Cc1ccccc1	-6.346 & -35.16	-9.055
CCc1nc(CN(C)C2CCN(Cc3cnc(C)cn3)C2)no1 (centres undefined)	-20.53	-19.55
CCc1cccc(N2CCC(NC(=O)c3ccco3)CC2)c1	17.73	-4.393
O=C(c1ccc2ccccc2c1)C1CCCN(C(=O)Cn2cnnn2)C1 (centres undefined)	-8.259	-9.854
CC(=O)N1N=C(COc2ccc(C)cc2)OC1c1ccc(N(C)C)cc1 (centres undefined)	10.85	-14.59
CC(C)n1ccnc1CN1CCCN(C(=O)CN(C)C2CC2)CC1	-10.58	-36.21
CC(C)c1nnc2n1CCN(CC(=O)Nc1nncs1)C2	4.604	-17.7
Cc1nc(CN2C(=O)COC3(CCN(C)CC3)C2C)cs1.O=C(O)C(F)(F)F (centres undefined)	-1.575	14.81
COc1ccc(CNC(=O)CCSCc2csc(C)n2)cn1	11.75 & 0.2011	16.23
COCC(=O)NC(C)Cc1cccc(Cl)c1 (centres undefined)	62.66	42.62
Cc1nccc(-c2ccccc2)c1C(=O)N1CC[C@](C)(O)[C@H](C)C1	-8.689	0.8179
[H][C@]12CN(CC3CC3)C(=O)[C@@]1([H])CN(S(C)(=O)=O)C2	-17.1	-4.041
COc1cccnc1NC(=O)c1ccc(COCC(F)(F)F)cc1	19.78	-3.009
CC(C)CN1CCCC12CCN(c1nncs1)C2.O=C(O)C(F)(F)F (centres undefined)	-4.602 & 9.373	4.829 & -6.949
O=C(CCC(=O)NCc1cccc(Br)c1)NCCN1CCCC1	-11.4	-28.95
CCCN(CCc1cccc(F)c1)c1ccc2nnnn2n1	12.8	11.4
CCC(C)(C)NC(=O)C1CC(=O)N(CC2CC2)C1 (centres undefined)	-40.68	44.2
NC(=O)C1CCN(C(=O)c2cccn2Cc2cccs2)CC1	9.472	0.406
Cc1ccc(CN2CCC(CNC(=O)Cn3cncn3)CC2)cc1	-8.602 & -0.1557	-4.287
C=C/C=c1\c(=C/C)oc2c(NCc3ccccc3)nc(C)nc12	74.26	70.14
CCS(=O)(=O)N1CCC2(COCc3cnc(N4CCOCC4)nc32)C1 (centres undefined)	33.26	-1.015
O=C(O)[C@@H]1CN(Cc2nc3ncccn3n2)C[C@H]1c1cccc(F)c1	8.358	-39.44
O=C(NC1CC1)c1ccccc1NCc1cn2cccnc2n1	-28.9 & -2.058	-5.331
CCc1nc(C)c([C@H]2CN(C)C[C@@H]2C(=O)NCCc2cnccn2)[nH]1	11.93	14.57
COc1ccc(Cc2nc3c([nH]2)CC(C)(C)CNC3=O)cc1OC	-45.82	-12.04
O=C(CCNc1ccccc1)NC1CCN(C(=O)C2CCCCC2)CC1	-3.783 & 10.47	15.44
CC(=O)NCC1CCN(C(=O)NCCOc2ccc3c(c2)CCC3)CC1	-10.8	7.623
COc1ccc(S(=O)(=O)NC(=O)COc2ccc3c(c2)CCC3)cc1	-35.67	-16.61
COc1ccc(NC(=O)c2cccc(CN3CCCC3C)c2)cc1OC (centres undefined)	4.937	1.242
COc1cc(C)c(C)cc1S(=O)(=O)N(C)CC(=O)Nc1ccon1	28.31	13.46
CC(C)CC(NC(=O)CSCC(N)=O)c1cccs1 (centres undefined)	-24.95	5.826
Cc1ccc(OCCC(=O)N2CCC(c3nncn3C)CC2)c(C)c1	2.193	-1.004
Cc1cc(C)n(C2CCCN(C(=O)Cc3cccc(F)c3)C2)n1 (centres undefined)	-1.949	5.927
CN(CC(O)C1CC1)C(=O)c1ccc(-c2nc(C3CC3)no2)cc1 (centres undefined)	2.301	-12.86
CC(C)N1CCC(N2CCOC3(CCCC3)C2)C1=O (centres undefined)	14.02	-6.156
CC(C)(C)NC(=O)CNc1ncc(Br)cn1	22.55	8.488

Some entries from above, unchanged:

NC(=O)c1ccc(OCC(=O)N2CCCC2c2ccc[nH]2)cc1 (centres undefined) read A: -21.61%; B: 20.26%.
Cc1noc(C2CCN(C(=O)CCNS(C)(=O)=O)CC2)n1 read A: -24.39%; B: 1.227%.
Cc1cc(C)n(C2CCCN(C(=O)Cc3cccc(F)c3)C2)n1 (centres undefined) read A: -1.949%; B: 5.927%.
CC(C)CN1CCCC12CCN(c1nncs1)C2.O=C(O)C(F)(F)F (centres undefined) read A: -4.602% & 9.373%; B: 4.829% & -6.949%.